Measured values as given in the supplement of paper PMC10849652.
The other results are listed elsewhere or left out. Residues, ends and D or L forms follow the SMILES beside them. *: point of attachment. Cbz = O=C(OCc1ccccc1)*

Chains of the proteins cited; added tags and fusions are not shown. Lines headed by an entry give the natural chain unless they say otherwise; changes in a name come on top.
UniProt Q6VVX0: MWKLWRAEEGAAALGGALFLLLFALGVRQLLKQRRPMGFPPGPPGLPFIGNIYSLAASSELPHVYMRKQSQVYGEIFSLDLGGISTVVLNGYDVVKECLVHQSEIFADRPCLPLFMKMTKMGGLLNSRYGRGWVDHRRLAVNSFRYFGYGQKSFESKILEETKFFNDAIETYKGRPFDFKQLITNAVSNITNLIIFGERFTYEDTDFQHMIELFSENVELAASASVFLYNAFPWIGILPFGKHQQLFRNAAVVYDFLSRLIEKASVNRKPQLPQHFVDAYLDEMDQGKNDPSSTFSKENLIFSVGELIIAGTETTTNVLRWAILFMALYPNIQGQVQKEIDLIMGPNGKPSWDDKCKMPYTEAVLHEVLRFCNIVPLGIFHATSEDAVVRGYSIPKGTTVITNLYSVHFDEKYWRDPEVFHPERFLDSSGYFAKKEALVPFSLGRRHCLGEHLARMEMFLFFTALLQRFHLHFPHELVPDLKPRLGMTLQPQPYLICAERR
UniProt Q9UIK4: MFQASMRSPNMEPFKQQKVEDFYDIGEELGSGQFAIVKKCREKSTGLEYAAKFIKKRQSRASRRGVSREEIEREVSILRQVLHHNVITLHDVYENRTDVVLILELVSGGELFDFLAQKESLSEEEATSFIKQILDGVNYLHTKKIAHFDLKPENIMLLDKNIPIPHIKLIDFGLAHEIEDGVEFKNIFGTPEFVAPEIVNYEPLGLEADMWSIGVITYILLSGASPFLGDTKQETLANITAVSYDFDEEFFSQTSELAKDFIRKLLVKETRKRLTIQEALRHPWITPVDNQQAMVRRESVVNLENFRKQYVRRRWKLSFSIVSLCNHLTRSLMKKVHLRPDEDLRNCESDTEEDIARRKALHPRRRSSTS
UniProt Q2TBE0: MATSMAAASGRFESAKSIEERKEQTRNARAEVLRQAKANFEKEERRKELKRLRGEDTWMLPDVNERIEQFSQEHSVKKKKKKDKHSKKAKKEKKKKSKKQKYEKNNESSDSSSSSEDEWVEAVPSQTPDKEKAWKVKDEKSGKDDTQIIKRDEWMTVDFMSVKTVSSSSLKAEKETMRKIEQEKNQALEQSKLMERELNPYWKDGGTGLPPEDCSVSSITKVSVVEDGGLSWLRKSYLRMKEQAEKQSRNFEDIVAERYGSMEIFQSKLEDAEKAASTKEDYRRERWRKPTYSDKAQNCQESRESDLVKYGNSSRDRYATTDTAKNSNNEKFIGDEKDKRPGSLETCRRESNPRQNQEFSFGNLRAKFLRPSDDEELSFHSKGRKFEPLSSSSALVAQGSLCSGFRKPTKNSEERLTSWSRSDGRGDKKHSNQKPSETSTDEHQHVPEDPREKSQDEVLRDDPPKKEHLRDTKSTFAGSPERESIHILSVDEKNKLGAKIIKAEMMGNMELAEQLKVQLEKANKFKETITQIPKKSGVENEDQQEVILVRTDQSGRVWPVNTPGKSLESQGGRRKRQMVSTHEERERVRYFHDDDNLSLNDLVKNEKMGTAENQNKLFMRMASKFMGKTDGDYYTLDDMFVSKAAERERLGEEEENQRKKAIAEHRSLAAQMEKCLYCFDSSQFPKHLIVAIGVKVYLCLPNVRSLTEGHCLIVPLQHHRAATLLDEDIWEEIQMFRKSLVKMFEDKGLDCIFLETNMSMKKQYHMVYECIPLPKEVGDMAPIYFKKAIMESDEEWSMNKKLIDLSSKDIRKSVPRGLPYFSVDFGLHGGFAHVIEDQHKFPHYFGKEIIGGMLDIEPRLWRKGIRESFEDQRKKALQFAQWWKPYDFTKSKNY
UniProt O43310: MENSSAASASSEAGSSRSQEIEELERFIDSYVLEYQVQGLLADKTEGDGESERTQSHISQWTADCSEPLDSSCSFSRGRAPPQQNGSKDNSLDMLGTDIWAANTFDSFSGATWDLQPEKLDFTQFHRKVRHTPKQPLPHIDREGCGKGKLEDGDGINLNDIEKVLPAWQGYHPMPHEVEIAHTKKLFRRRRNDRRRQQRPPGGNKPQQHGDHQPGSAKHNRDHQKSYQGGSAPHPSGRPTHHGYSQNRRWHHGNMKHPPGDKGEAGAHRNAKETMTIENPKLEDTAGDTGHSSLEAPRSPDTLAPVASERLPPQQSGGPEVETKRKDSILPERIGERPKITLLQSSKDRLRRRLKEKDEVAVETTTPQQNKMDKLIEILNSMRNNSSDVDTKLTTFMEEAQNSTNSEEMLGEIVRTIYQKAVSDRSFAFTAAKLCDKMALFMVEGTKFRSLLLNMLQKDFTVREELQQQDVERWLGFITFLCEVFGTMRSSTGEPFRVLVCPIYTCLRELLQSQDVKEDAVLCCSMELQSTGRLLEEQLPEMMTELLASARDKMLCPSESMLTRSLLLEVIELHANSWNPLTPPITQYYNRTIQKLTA
UniProt Q8IZD4: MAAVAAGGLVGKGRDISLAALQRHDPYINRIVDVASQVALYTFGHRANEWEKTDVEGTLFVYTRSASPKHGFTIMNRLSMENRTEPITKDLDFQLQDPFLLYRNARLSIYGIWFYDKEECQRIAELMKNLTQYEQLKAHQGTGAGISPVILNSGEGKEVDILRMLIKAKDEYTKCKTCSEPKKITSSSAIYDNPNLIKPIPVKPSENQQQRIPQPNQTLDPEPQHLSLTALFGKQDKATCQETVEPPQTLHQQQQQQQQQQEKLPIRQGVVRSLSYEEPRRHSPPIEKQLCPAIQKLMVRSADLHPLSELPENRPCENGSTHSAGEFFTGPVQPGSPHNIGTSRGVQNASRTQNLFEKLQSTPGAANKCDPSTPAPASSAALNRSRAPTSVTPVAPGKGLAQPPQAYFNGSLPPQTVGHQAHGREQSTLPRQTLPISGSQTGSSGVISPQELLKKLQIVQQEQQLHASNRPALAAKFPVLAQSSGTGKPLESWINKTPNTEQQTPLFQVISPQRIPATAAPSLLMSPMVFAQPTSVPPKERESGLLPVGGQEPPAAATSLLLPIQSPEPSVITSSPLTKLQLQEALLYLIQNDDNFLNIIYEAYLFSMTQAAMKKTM
UniProt Q16527: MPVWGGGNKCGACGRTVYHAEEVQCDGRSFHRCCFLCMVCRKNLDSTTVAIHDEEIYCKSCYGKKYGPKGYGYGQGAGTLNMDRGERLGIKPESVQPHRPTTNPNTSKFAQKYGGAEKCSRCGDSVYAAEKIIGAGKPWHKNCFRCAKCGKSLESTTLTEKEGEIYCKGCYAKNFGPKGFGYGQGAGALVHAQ
UniProt Q92564: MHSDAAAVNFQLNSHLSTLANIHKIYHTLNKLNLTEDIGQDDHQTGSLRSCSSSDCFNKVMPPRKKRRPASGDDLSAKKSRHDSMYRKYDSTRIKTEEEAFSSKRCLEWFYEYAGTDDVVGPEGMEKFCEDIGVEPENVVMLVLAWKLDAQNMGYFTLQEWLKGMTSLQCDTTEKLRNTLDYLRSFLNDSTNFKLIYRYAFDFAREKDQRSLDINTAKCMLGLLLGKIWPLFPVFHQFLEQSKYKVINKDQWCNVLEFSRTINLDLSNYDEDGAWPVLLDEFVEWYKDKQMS
UniProt Q8N8Z6: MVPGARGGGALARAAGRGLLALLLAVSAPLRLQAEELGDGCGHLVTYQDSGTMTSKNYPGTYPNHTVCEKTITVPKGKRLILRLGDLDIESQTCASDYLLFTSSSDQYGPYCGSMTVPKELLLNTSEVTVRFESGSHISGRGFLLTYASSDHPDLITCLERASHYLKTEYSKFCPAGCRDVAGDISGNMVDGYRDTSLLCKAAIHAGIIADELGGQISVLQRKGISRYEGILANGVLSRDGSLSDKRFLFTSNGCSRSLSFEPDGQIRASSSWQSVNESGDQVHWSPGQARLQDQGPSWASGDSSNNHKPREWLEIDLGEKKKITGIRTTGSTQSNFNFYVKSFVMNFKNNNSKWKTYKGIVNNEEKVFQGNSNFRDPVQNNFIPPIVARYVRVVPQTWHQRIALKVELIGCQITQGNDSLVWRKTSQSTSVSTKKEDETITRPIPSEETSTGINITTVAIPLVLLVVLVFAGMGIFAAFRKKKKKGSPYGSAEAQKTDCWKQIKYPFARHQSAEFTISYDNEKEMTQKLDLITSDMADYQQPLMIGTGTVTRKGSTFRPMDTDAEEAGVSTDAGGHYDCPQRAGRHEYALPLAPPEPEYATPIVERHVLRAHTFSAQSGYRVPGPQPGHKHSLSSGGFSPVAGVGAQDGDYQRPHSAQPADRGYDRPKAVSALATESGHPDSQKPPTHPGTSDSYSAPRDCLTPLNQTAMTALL
UniProt Q5H9S7: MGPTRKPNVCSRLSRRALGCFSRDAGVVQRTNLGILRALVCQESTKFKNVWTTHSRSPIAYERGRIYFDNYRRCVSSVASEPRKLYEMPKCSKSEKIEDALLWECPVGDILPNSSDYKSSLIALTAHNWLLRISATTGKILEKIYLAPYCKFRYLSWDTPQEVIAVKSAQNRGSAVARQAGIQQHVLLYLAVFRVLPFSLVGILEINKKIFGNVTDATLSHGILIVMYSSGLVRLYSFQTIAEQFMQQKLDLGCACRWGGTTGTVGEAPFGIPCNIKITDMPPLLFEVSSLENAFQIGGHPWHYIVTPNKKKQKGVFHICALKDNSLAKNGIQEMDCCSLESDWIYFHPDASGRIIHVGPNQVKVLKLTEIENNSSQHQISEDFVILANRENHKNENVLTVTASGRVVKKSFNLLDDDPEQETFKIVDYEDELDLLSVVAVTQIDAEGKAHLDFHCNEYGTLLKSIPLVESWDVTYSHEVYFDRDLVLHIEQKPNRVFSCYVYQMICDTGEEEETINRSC
UniProt Q9H9R9: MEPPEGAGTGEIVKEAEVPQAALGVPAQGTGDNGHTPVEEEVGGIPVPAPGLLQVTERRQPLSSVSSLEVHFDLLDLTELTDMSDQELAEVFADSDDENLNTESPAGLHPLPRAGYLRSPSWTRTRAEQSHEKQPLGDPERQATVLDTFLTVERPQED
UniProt P01037: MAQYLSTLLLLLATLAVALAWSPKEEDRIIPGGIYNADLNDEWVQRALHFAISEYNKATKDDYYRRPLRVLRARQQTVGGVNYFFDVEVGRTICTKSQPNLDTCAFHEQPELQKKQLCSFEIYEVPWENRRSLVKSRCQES
UniProt Q15438: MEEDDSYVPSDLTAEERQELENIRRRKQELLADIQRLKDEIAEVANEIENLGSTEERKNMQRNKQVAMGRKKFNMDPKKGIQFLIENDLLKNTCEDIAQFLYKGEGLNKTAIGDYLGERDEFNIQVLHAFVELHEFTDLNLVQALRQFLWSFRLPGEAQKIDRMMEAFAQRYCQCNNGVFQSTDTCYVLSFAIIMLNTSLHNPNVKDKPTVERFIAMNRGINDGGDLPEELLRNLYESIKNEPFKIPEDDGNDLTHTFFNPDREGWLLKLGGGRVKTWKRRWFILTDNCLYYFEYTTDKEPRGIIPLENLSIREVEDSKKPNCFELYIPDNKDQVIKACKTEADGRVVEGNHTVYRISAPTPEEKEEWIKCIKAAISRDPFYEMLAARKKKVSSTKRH
UniProt O95476: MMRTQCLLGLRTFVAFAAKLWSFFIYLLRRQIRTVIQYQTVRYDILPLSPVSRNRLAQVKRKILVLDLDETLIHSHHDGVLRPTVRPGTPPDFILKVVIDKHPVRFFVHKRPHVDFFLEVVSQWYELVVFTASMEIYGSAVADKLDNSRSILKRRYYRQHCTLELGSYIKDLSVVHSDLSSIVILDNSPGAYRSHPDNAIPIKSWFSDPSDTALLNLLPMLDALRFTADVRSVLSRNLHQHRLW
UniProt Q8WV16: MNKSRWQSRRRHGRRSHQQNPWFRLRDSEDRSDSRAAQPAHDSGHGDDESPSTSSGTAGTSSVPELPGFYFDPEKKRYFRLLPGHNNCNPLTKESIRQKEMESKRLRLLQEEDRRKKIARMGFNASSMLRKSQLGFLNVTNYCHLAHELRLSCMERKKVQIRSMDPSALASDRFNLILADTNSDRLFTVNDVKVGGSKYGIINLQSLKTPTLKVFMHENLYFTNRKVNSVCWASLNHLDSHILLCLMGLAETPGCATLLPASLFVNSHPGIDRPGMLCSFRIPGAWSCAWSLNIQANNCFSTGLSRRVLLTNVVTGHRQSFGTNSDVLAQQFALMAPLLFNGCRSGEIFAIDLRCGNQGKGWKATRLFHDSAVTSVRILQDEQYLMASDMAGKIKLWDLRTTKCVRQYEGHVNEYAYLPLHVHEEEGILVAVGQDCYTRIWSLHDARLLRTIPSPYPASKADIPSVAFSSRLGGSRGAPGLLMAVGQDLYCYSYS

Legend:
Assay in all cases: log2 fold change, soluble protein after heating vs DMSO (PISA); higher = thermal stabilisation; K562 cells, 10 uM, 30 min; active = over 0.2 and 3.5 SD of the protein, either way, in both replicates (recomputed)
[1] = compound: CC1=C(C=C(C=C1)NC(=O)C2=CC(=CC=C2)C(C)(C)C#N)NC3=CC4=C(C=C3)N=CN(C4=O)C
Method in brief: (§1)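 Quantification of soluble protein used TMTpro 16plex LC-MS/MS, with channel sums equalised. Samples were the supernatant after 21,000xg for 90 min of pooled aliquots from K562 cells (2×10^6 cells/mL) treated with 10 μM compound for 30 min, heated for 3 min over 48°C-58°C, and extracted in PBS with 0.5% NP-40 at 4°C. Values, from duplicates, describe thermal stability against control samples on a log2 fold-change scale.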

[2] = compound: CCCc1cc(C)[nH]c(=O)c1CNC(=O)c1cc(-c2ccnc(N3CCN(C)CC3)c2)cc2c1cnn2C(C)C
Method in brief: as §1

[3] = compound: C=CC(=O)N1CCC[C@@H](n2nc(-c3ccc(Oc4ccccc4)cc3)c3c(N)ncnc32)C1 [ibrutinib]
Method in brief: as §1

[4] = compound: CC(=O)c1cnc2ccc(-c3cc(Cl)c(O)c(Cl)c3)nc2c1N[C@H]1CC[C@H](CN(C)C)CC1
Method in brief: as §1

[5] = compound: CC(C)(C)Cn1c(N)nc2ccc(-c3[nH]c(C(C)(C)C)nc3-c3ccc(F)cc3)nc21 [ralimetinib]
Method in brief: as §1

[6] = compound: CC(C)(O)CC(=O)NCCn1ccc2ncnc(Nc3ccc(Oc4cccc(C(F)(F)F)c4)c(Cl)c3)c21
Method in brief: as §1

[7] = compound: CC(C)C1=C2N=C(C=C(N2N=C1)NCC3=CC=CC=C3)NCCCCCCN
Method in brief: as §1

[8] = compound: CC(C)C[C@@H](C=O)NC(=O)[C@H](CC(C)C)NC(=O)[C@H](CC(C)C)NC(=O)OCc1ccccc1
Method in brief: as §1

[9] = compound: CC1=C(C(CC(=O)N1)C2=CC=C(C=C2)C(F)(F)F)C(=O)NC3=C(C=C4C(=C3)C=NN4)F
Method in brief: as §1

[10] = compound: CC1=C(C=C(C=C1)NC(=O)C2=CC(=CC=C2)N(C)C)NC(=O)C3=CC=C(C=C3)O
Method in brief: as §1

[11] = compound: CC1=CC=C(C=C1)SC2=C3C=C(SC3=CN=C2)C(=O)N
Method in brief: as §1

[12] = compound: CCCCN(Cc1ccc(C(=O)NO)cc1)C(=O)Nc1ccccc1 [Nexturastat A]
Method in brief: as §1

[13] = compound: CCCS(=O)(=O)Nc1ccc(F)c(C(=O)c2c[nH]c3ncc(-c4ccc(Cl)cc4)cc23)c1F [vemurafenib]
Method in brief: as §1

[14] = compound: CCCS(=O)(=O)Nc1ccc(F)c(C(=O)c2c[nH]c3ncc(Cl)cc23)c1F
Method in brief: as §1

[15] = compound: CCN(CC)Cc1ccc2cc(COC(=O)Nc3ccc(C(=O)NO)cc3)ccc2c1 [givinostat]
Method in brief: as §1

[16] = compound: CCN(CCCOc1ccc2c(Nc3cc(CC(=O)Nc4cccc(F)c4)[nH]n3)ncnc2c1)CCOP(=O)(O)O [barasertib]
Method in brief: as §1

[17] = compound: CC1=C(C2=C(C=C1)C(=O)C3=CC=CC=C3N2CCCN)C
Method in brief: as §1

[18] = compound: C1COCCN1CCN2C3=CC=CC=C3N=C2NC(=O)C4=CC(=CC=C4)[N+](=O)[O-] [IRAK-1-4 Inhibitor I]
Method in brief: as §1

[19] = compound: CC(C)N(C[C@H]1O[C@@H](n2cnc3c(N)ncnc32)[C@H](O)[C@@H]1O)[C@H]1C[C@@H](CCc2nc3cc(C(C)(C)C)ccc3[nH]2)C1 [pinometostat]
Method in brief: as §1

[20] = compound: CC1=NC(=CC=C1)C2=C(N=C(N2)C(C)(C)C)C3=CC4=NC=CN=C4C=C3
Method in brief: as §1

Measured: log2 fold change

DCAF12 (UniProt Q5T6F0)
inactive: [1] -0.136 | [2] 0.08

CYB5A (UniProt P00167)
inactive: [3] 0.029 | [4] -0.069 | [5] -0.073 | [6] -0.026 | [7] 0.015 | [8] 0.012 | [9] 0.013 | [1] -0.044 | [10] -0.067 | [11] -0.002 | [12] 0.031 | [13] 0.077 | [14] -0.038 | [2] -0.026 | [15] 0.045 | [16] 0.036

DAPK1 isoform 3 (UniProt P53355)
inactive: [3] -0.073 | [5] -0.152 | [6] 0.088 | [8] -0.05 | [1] -0.021 | [10] 0.149 | [11] -0.104 | [12] 0.4 | [14] -0.203 | [2] -0.278 | [16] -0.023

CTDSPL2 (UniProt Q05D32)
inactive: [4] -0.15 | [6] -0.251 | [9] -0.175 | [12] -0.052

CYP2R1 (UniProt Q6VVX0)
inactive: [3] 0.004 | [9] 0.038 | [17] 0.076 | [16] -0.116

Quoted at random: 2 entries already listed, in no set order.
CYP2R1 (UniProt Q6VVX0)
inactive: [3] 0.004 | [9] 0.038 | [17] 0.076 | [16] -0.116

DAPK1 isoform 3 (UniProt P53355)
inactive: [3] -0.073 | [5] -0.152 | [6] 0.088 | [8] -0.05 | [1] -0.021 | [10] 0.149 | [11] -0.104 | [12] 0.4 | [14] -0.203 | [2] -0.278 | [16] -0.023

(next part)

DAPK2 isoform 2 (UniProt Q9UIK4)
inactive: [18] 0.097 | [19] -0.122 | [1] -0.21 | [20] 0.009 | [2] -0.033

CWF19L2 (UniProt Q2TBE0)
inactive: [18] 0.029 | [4] -0.075 | [5] 0.014 | [7] 0.184 | [8] 0.02 | [19] 0.098 | [17] 0.106 | [1] -0.048 | [10] 0.046 | [11] 0.166 | [20] -0.038 | [14] -0.057 | [15] 0.035

CYBRD1 (UniProt Q53TN4)
inactive: [18] -0.111 | [4] -0.058 | [5] 0.104 | [7] -0.028 | [8] -0.233 | [19] 0.007 | [10] 0 | [11] -0.023 | [20] 0.018 | [13] 0.002 | [14] -0.274 | [2] -0.053 | [15] 0.059

CTIF (UniProt O43310)
inactive: [5] -0.268 | [6] -0.138 | [8] 0.061 | [17] -0.029 | [1] -0.071 | [10] -0.109 | [12] 0.043 | [13] 0.327

CTSF (UniProt Q9UBX1)
inactive: [6] 0.102 | [7] -0.735 | [12] -0.016 | [15] -0.004

CXXC1 isoform 2 (UniProt Q9P0U4)
inactive: [18] 0.055 | [4] -0.012 | [19] 0.041 | [17] 0.028 | [1] -0.096 | [11] 0.076 | [20] -0.005 | [13] -0.077 | [14] 0.031

CST6 (UniProt Q15828)
inactive: [6] 0.175 | [9] -0.991 | [17] 1.63 | [1] -0.301 | [12] 0.26 | [2] 0.077

DCP1B (UniProt Q8IZD4)
inactive: [3] -0.052 | [17] 0.044 | [16] -0.049

CSRP2 (UniProt Q16527)
inactive: [4] 0.015 | [5] 0.146 | [8] -0.239 | [17] -0.006 | [1] -0.215 | [10] 0.041 | [13] -0.004

DCUN1D5 (UniProt Q9BTE7)
inactive: [18] 0.099 | [4] 0.027 | [5] 0.014 | [8] 0.094 | [19] -0.007 | [17] 0.038 | [10] 0.098 | [20] -0.039 | [13] 0.098 | [2] -0.023

CTDSP1 (UniProt Q9GZU7)
inactive: [5] -0.036 | [7] -0.207 | [8] 0.169 | [9] -0.072 | [17] -0.047 | [10] -0.174 | [13] 0.003 | [15] 0.037

CTNS isoform 2 (UniProt O60931)
inactive: [1] 0.084 | [13] -0.117 | [2] -0.111

CTSS (UniProt P25774)
inactive: [18] -0.023 | [5] -0.026 | [8] 0.12 | [19] -0.001 | [17] 0.316 | [1] 0.032 | [10] -0.045 | [20] -0.068 | [13] -0.053

DCUN1D4 isoform 3 (UniProt Q92564)
inactive: [18] -0.075 | [4] -0.088 | [6] -0.02 | [19] 0.127 | [17] -0.349 | [1] -0.058 | [20] 0.066 | [12] 0.083 | [13] -0.016 | [2] 0.054

DCBLD1 (UniProt Q8N8Z6)
inactive: [6] 0.248 | [11] -0.392 | [12] 0.156 | [14] 0.046

DCBLD2 isoform 2 (UniProt Q96PD2)
inactive: [4] -0.021

DCAF17 (UniProt Q5H9S7)
inactive: [6] -0.338 | [12] 0.059 | [13] 0.086

CTNNBIP1 (UniProt Q9NSA3)
inactive: [2] 0.015

CXorf40B (UniProt Q96DE9)
inactive: [18] 0.012 | [4] -0.198 | [5] 0.01 | [6] -0.093 | [8] -0.08 | [19] -0.067 | [10] -0.1 | [20] 0.065 | [12] 0.047

DBNDD1 isoform 3 (UniProt Q9H9R9)
inactive: [6] -0.036 | [7] -0.031 | [1] 0.206 | [12] 0.037 | [15] 0.148

CTR9 (UniProt Q6PD62)
inactive: [18] -0.115 | [5] 0.154 | [6] -0.038 | [7] -0.546 | [8] 0.197 | [19] -0.039 | [1] -0.054 | [10] -0.154 | [11] -0.244 | [20] -0.101 | [12] 0.211 | [14] 0.259 | [15] 0.22

CTBP1 (UniProt E7ESU7)
inactive: [7] -0.061 | [15] 0.081

CTPS1 isoform 2 (UniProt P17812)
inactive: [4] -0.143 | [1] 0.208

CSPG5 (UniProt O95196)
inactive: [6] -0.036 | [7] 0.314 | [1] -0.009 | [11] 0.14 | [12] -0.361 | [14] -0.133 | [15] -0.072

CTDP1 (UniProt Q9Y5B0)
inactive: [18] -0.047 | [6] -0.108 | [7] -0.218 | [19] 0.049 | [9] 0.02 | [17] 0.122 | [1] -0.031 | [11] 0.071 | [20] -0.067 | [12] -0.02 | [14] 0.047 | [2] 0.035 | [15] 0.149

CST1 (UniProt P01037)
inactive: [3] 0.257 | [6] 0.038 | [9] -0.152 | [1] -0.029 | [12] -0.074 | [13] 0.168 | [2] 0.052 | [16] 0.345

CYTH1 (UniProt Q15438)
inactive: [4] -0.033 | [6] -0.03 | [17] -0.248 | [11] -0.096 | [12] 0.181 | [13] 0.066 | [14] -0.059 | [2] 0

CTDNEP1 (UniProt O95476)
inactive: [4] -0.159 | [7] 0.072 | [17] 0.064 | [1] -0.028 | [13] -0.019 | [15] -0.005

DCAF4 (UniProt Q8WV16)
inactive: [5] -0.026 | [6] -0.019 | [8] -0.042 | [1] 0.03 | [10] 0.072 | [12] -0.132 | [2] -0.061

CWC22 (UniProt Q9HCG8)
inactive: [18] -0.055 | [19] 0.164 | [11] 0.271 | [20] -0.308 | [14] 0.351

CTNNBL1 (UniProt Q8WYA6)
inactive: [3] 0.046 | [11] 0.185 | [13] -0.02 | [14] -0.166 | [16] 0.012

CXXC5 (UniProt Q7LFL8)
inactive: [5] 0.009 | [6] -0.117 | [7] 0.061 | [8] 0.179 | [10] -0.056 | [12] 0.116 | [15] -0.083

CYREN (UniProt Q9BWK5)
inactive: [18] -0.111 | [5] -0.12 | [7] 0.181 | [8] 0.055 | [19] -0.151 | [9] -0.075 | [10] 0.114 | [20] -0.012 | [13] 0.108 | [2] -0.026 | [15] -0.115

CUL7 isoform 2 (UniProt Q14999)
inactive: [5] 0.264 | [6] -0.17 | [7] 0.034 | [8] 0.103 | [9] 0.023 | [17] 0.024 | [10] -0.125 | [11] -0.044 | [12] 0.084 | [14] 0.043 | [15] 0.32
